Data as given in PubChem BioAssay AID504744 (Drosophila RNAi Screening Center, 2011)

Purpose: 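Find genes whose loss alters insulin-driven dAkt phosphorylation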 (primary screen)
Cell system: Drosophila Kc167 cells
Reagent: long dsRNA against Drosophila genes, 250 ng dsRNA per well of a 384-well plate
Timing: 3 days of knock-down, then overnight serum-free starvation before stimulation
Challenge: bovine insulin at 387 nM for 10 minutes after 12 h without serum
Detection: 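In-cell antibody fluorescence for phospho-dAkt in each well over DNA-dye signal, with log2 residuals expressed as z-scores adjusted for cell count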
Call rule: 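Under insulin, a gene counts as a hit if the average z-score of two replicates lies above 2.5 or below -2.5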
The screen tested about 23,000 reagents; this is a random part of those that have a named target and a result. In the full data, 98 (0.43%) were called active. 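Only hit calls are given; the phospho-dAkt signals, z-scores and hit direction were not deposited.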 Names joined by + are all predicted targets of the reagent.

gene | DRSC id | activity call
CycK (Cyclin K) | DRSC03714 | inactive
Pex13 (Peroxin 13) | DRSC06877 | inactive
CG31898 | DRSC01019 | inactive
Clc (Clathrin light chain) | DRSC11116 | inactive
Snap29 (Synaptosomal-associated protein 29kDa) | DRSC04721 | inactive
CG3330 | DRSC15477 | inactive
CG11293 (retired record) | DRSC04098 | inactive
Desi (Desiccate) | DRSC14909 | inactive
Dro (Drosocin) | DRSC07406 | inactive
lncRNA:CR41601 (long non-coding RNA:CR41601) | DRSC22158 | inactive
CG4554 | DRSC04473 | inactive
CG3117 | DRSC00568 | inactive
Ir60e (Ionotropic receptor 60e) | DRSC04227 | inactive
Jon25Biii (Jonah 25Biii) | DRSC03115 | inactive
Kr (Kruppel) | DRSC04622 | inactive
CG13739 | DRSC06410 | inactive
COX7A (Cytochrome c oxidase subunit 7A) | DRSC16514 | inactive
Cap-D2 (CAP-D2 condensin subunit) | DRSC15401 | inactive
Sid (Stress induced DNase) | DRSC16588 | inactive
CG13168 | DRSC06295 | inactive
Gclc (Glutamate-cysteine ligase catalytic subunit) | DRSC18666 | inactive
CG13494 | DRSC04139 | inactive
ninaE (neither inactivation nor afterpotential E) | DRSC17014 | inactive
CG6149 | DRSC10593 | inactive
CG12689 | DRSC17879 | inactive
CG18428 | DRSC15326 | inactive
Gk1 (Glycerol kinase 1) | DRSC08533 | inactive
Gk1 (Glycerol kinase 1) | DRSC08534 | inactive
alpha-Est2 (alpha-Esterase-2) | DRSC12614 | inactive
BomBc3 (Bomanin Bicipital 3) | DRSC15873 | inactive
Tes (Testin) | DRSC06996 | inactive
PIG-H + Kmn2 | DRSC12653 | inactive
CG8851 | DRSC00718 | inactive
CG5098 | DRSC06915 | inactive
Nadk2 (NAD kinase 2, mitochondrial) | DRSC07072 | inactive
CG32236 | DRSC08117 | inactive
CG33792 | DRSC05355 | inactive
CG13127 | DRSC02223 | inactive
wun2 (wunen-2) | DRSC07566 | inactive
CG3625 | DRSC00008 | inactive
CG3625 | DRSC00621 | inactive
sloth2 + sloth1 | DRSC17922 | inactive
sloth2 + sloth1 | DRSC17923 | inactive
Hexo1 (Hexosaminidase 1) | DRSC08663 | inactive
tweek | DRSC02433 | inactive
tweek | DRSC02434 | inactive
tweek | DRSC02785 | inactive
CG7191 | DRSC03022 | inactive
Polr3I (RNA polymerase III subunit I) | DRSC19922 | inactive
cv (crossveinless) | DRSC17833 | inactive
CG17636 | DRSC20648 | inactive
ct (cut) | DRSC18757 | inactive
hd (humpty dumpty) | DRSC12316 | inactive
Alg3 (ALG3, alpha-1,3- mannosyltransferase) | DRSC04700 | inactive
CCT8 (Chaperonin containing TCP1 subunit 8) | DRSC07130 | inactive
CG31467 | DRSC16048 | inactive
CG10257 | DRSC05985 | inactive
cpo (couch potato) | DRSC13265 | inactive
CG7137 | DRSC07017 | inactive
CG4751 | DRSC02776 | inactive
tou (toutatis) | DRSC06006 | inactive
tou (toutatis) | DRSC22710 | inactive
Snm1 | DRSC12130 | inactive
PAN2 (Poly(A)-binding protein-dependent poly(A) ribonuclease 2) | DRSC07115 | inactive
MP1 (Melanization Protease 1) | DRSC12124 | inactive
CG34428 | DRSC10119 | inactive
Lsm12a (LSM12 homolog a) | DRSC19702 | inactive
CG30291 | DRSC03842 | inactive
rux (roughex) | DRSC18829 | inactive
CG10822 | DRSC06005 | inactive
CG12691 | DRSC17880 | inactive
CG11714 | DRSC09857 | inactive
Tnks (tankyrase) | DRSC14154 | inactive
CG9776 | DRSC12127 | inactive
ImpL1 (Ecdysone-inducible gene L1) | DRSC11197 | inactive
CG32052 | DRSC10966 | inactive
Srp54k (Signal recognition particle 54k) | DRSC11289 | inactive
Tpc1 | DRSC15614 | inactive
Tpc1 | DRSC16074 | inactive
gom (gomdanji) | DRSC04690 | inactive
l(3)S110416 (retired record) | DRSC17094 | inactive
CG10184 | DRSC14204 | inactive
Cpr67Fa2 (Cuticular protein 67Fa2) | DRSC10315 | inactive
Tmf (TATA element modulatory factor) | DRSC18368 | inactive
CG14654 (retired record) | DRSC12240 | inactive
CG5246 | DRSC15751 | inactive
CG11298 | DRSC04100 | inactive
CG31493 | DRSC12583 | inactive
CG15894 | DRSC18098 | inactive
CG15894 | DRSC18099 | inactive
Pcyt1 (Phosphocholine cytidylyltransferase 1) | DRSC08157 | inactive
CG42552 (retired record) | DRSC11512 | inactive
GstE4 (Glutathione S transferase E4) | DRSC06674 | inactive
Pkn + Tsen15 | DRSC21969 | inactive
DptB (Diptericin B) | DRSC06001 | inactive
Cyp40 (Cyclophilin 40) | DRSC10980 | inactive
CG14471 (retired record) | DRSC04865 | inactive
CG14882 | DRSC15006 | inactive
UQCR-14L (Ubiquinol-cytochrome c reductase 14 kDa subunit-like) | DRSC15288 | inactive
UQCR-14L (Ubiquinol-cytochrome c reductase 14 kDa subunit-like) | DRSC22425 | inactive
esn (espinas) | DRSC05039 | inactive
esn (espinas) | DRSC07612 | inactive
Oatp58Db (Organic anion transporting polypeptide 58Db) | DRSC04364 | inactive
scrib (scribble) | DRSC13774 | inactive
scrib (scribble) | DRSC15809 | inactive
scrib (scribble) | DRSC17051 | inactive
Drsl5 (Drosomycin-like 5) | DRSC08159 | inactive
CG11227 | DRSC20476 | inactive
Hmgcr (HMG Coenzyme A reductase) | DRSC16704 | inactive
Mlc-c (Myosin light chain cytoplasmic) | DRSC18683 | inactive
CG12362 | DRSC09884 | inactive
CG9396 | DRSC16487 | inactive
CG43347 | DRSC17982 | inactive
CG43347 | DRSC18446 | inactive
CG43347 | DRSC22656 | inactive
CG43347 | DRSC22682 | inactive
CG42260 | DRSC03953 | inactive
CG42260 | DRSC04172 | inactive
CG42260 | DRSC04385 | inactive
CG17855 | DRSC02638 | inactive
Mcm7 (Minichromosome maintenance 7) | DRSC11219 | inactive
CG30010 | DRSC05193 | inactive
Decay (Death executioner caspase related to Apopain/Yama) | DRSC16930 | inactive
lncRNA:CR32385 (long non-coding RNA:CR32385) | DRSC22966 | inactive
Coq5 (Coenzyme Q5) | DRSC19849 | inactive
Coq5 (Coenzyme Q5) | DRSC21371 | inactive
CG42326 | DRSC06483 | inactive
CG42326 | DRSC06484 | inactive
Jra (Jun-related antigen) | DRSC07447 | inactive
dgt5 (dim gamma-tubulin 5) | DRSC07280 | inactive
Srp14 (Signal recognition particle 14) | DRSC15797 | inactive
ci (cubitus interruptus) | DRSC17172 | inactive
Tsp68C (Tetraspanin 68C) | DRSC09295 | inactive
CG2794 | DRSC00534 | inactive
sunz (sungrazer) | DRSC12559 | inactive
CG15012 | DRSC08465 | inactive
CG15570 | DRSC18058 | inactive
Sse (Separase) | DRSC09746 | inactive
Lar (Leukocyte-antigen-related-like) | DRSC01707 | inactive
Lar (Leukocyte-antigen-related-like) | DRSC03361 | inactive
Cnb (Centrobin) | DRSC08569 | inactive
CG31224 | DRSC15272 | inactive
CG31224 | DRSC16290 | inactive
CG17260 | DRSC00497 | inactive
CG15927 | DRSC19742 | inactive
Ccp84Af | DRSC12591 | inactive
Phm (Peptidylglycine-alpha-hydroxylating monooxygenase) | DRSC04639 | inactive
Spec2 (retired record) | DRSC12258 | inactive
Spec2 (retired record) | DRSC22886 | inactive
exp (expansion) | DRSC06313 | inactive
COX7B (Cytochrome c oxidase subunit 7B) | DRSC10895 | inactive
TwdlU (TweedleU) | DRSC12224 | inactive
skl (sickle) | DRSC10050 | inactive
Blm (Bloom syndrome helicase) | DRSC16911 | inactive
CG11322 | DRSC02142 | inactive
CG30283 | DRSC04071 | inactive
CG34155 | DRSC13991 | inactive
